From US20190083587A1 (Novo Nordisk, published 2019)
Positions count from the first letter of the chain named. Names may count otherwise. These are yes or no findings as the source states them, for the method shown. Some entries that bind do so weakly or less than the wild type.

Columns and labels:
Assay in all cases: SPR ProteOn, mAb captured by anti-hFc, 100 nM mutant, signal 10 s after injection, relative to wt
hTLT-1 ECD-HPC4 R41A = target: T1, hTLT-1 ECD-HPC4 R41A (human, UniProt Q86YW5 16-162)
T1 construct: Built as m17; also called Ala mutant 7
T1 chain: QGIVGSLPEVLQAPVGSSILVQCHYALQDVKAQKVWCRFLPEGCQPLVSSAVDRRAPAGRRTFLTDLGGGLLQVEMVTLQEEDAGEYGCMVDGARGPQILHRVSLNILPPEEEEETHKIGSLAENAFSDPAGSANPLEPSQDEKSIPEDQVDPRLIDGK

hTLT-1 ECD-HPC4 R110A = target: T2, hTLT-1 ECD-HPC4 R110A (human, UniProt Q86YW5 16-162)
T2 construct: Built as m17; also called Ala mutant 30
T2 chain: T1 chain with A26R, R95A

hTLT-1 ECD-HPC4 M91A = target: T3, hTLT-1 ECD-HPC4 M91A (human, UniProt Q86YW5 16-162)
T3 construct: Built as m17; also called Ala mutant 24
T3 chain: T1 chain with A26R, M76A

hTLT-1 ECD-HPC4 L42A = target: T4, hTLT-1 ECD-HPC4 L42A (human, UniProt Q86YW5 16-162)
T4 construct: Built as m17; also called Ala mutant 8
T4 chain: T1 chain with A26R, L27A

hTLT-1 ECD-HPC4 R117A = target: T5, hTLT-1 ECD-HPC4 R117A (human, UniProt Q86YW5 16-162)
T5 construct: Built as m17; also called Ala mutant 32
T5 chain: T1 chain with A26R, R102A

hTLT-1 ECD-HPC4 H116A = target: T6, hTLT-1 ECD-HPC4 H116A (human, UniProt Q86YW5 16-162)
T6 construct: Built as m17; also called Ala mutant 31
T6 chain: T1 chain with A26R, H101A

hTLT-1 ECD-HPC4 F54A = target: T7, hTLT-1 ECD-HPC4 F54A (human, UniProt Q86YW5 16-162)
T7 construct: Built as m17; also called Ala mutant 12
T7 chain: T1 chain with A26R, F39A

hTLT-1 ECD-HPC4 Q43A = target: T8, hTLT-1 ECD-HPC4 Q43A (human, UniProt Q86YW5 16-162)
T8 construct: Built as m17; also called Ala mutant 9
T8 chain: T1 chain with A26R, Q28A

hTLT-1 ECD-HPC4 K46A = target: T9, hTLT-1 ECD-HPC4 K46A (human, UniProt Q86YW5 16-162)
T9 construct: Built as m17; also called Ala mutant 10
T9 chain: T1 chain with A26R, K31A

hTLT-1 ECD-HPC4 S119A = target: T10, hTLT-1 ECD-HPC4 S119A (human, UniProt Q86YW5 16-162)
T10 construct: Built as m17; also called Ala mutant 33
T10 chain: T1 chain with A26R, S104A

Measured: binding

B1: mAb0061 (antibody, human IgG4 S228P, kappa, V domains shown)
VH: EVKLLESGGGLVQPGGSLKLSCAASGFDFSRYWMTWVRQAPGKGLEWIGEINPDSSTINYNPSLKDKFIISRDNAKNTLYLQMSEVRSEDTALYYCASGVFTSWGQGTLVTVSA
VL: DVVMTQTPLSLPVSLGDQASISCRSSQSLVHRNGNTYFHWALQKPGQSPKLLIYKVSNRFSGVPDRFSGSGSGTDFTLKISRVEAEDLGVYFCSQSTHVPYTFGGGTKLEIKR
notes: Mouse VH/VL, human IgG4 / kappa; variant of mAb0012 (HC T60N, LC C36A, Kabat); also called antiTLT-1 0061mab; (0012HC.T60N)2
binds: all assays above
